Experimental findings from paper PMC8914601 are described below.

For at least one entry, the source does not settle the construct or the ends of the probe.

The data set concerns the target alpha-synuclein fibrils (aggregates) (UniProt P37840). The data set is described as follows: single-molecule TIRF imaging (AD-PAINT) on surface-captured fibrils. The following applies: 100 nM Aptamer-DS1, 1 nM IS1-cy3B, 5 uM thioflavin-T, PBS with 100 nM aptamer-DS1, 1 nM IS1-cy3B, aptamer annealed in 1 M KCl, 0.1 M lithium cacodylate pH 7.3, imaging temperature not given, recombinant protein, folded or branched DNA.

As to “GCCTGTGGTGTTGGGGCGGGTGCGTTATACATCTA [Aptamer-DS1]”, the binding result is on record as “binds”.
